This is an account of results in article PMC12023400.

Amino acid sequences for entries named in this document (tags omitted).
UniProt Q13547: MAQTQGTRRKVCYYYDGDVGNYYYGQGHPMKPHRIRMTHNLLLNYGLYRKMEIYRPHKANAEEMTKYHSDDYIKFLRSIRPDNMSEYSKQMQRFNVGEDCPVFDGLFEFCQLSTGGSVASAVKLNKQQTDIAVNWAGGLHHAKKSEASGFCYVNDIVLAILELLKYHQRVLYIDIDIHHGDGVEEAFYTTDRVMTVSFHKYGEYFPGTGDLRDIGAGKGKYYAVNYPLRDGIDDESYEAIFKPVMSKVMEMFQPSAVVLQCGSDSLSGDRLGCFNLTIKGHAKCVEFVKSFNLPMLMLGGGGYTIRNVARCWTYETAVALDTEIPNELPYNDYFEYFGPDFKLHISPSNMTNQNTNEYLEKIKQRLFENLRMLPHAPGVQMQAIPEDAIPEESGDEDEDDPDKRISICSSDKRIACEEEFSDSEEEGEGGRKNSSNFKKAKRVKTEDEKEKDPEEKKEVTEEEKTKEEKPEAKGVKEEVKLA

Results are given in words; binding and its absence hold for the method and conditions named. In cells and extracts the contact can be indirect. Some results given as binding are weak or reduced against the parent protein; the word gives no strength. Sequences can lack the tags named with a protein.

The target of assay [1] is T1, 3HA-SAP30 (human Sin3A associated protein 30) (human) (UniProt O75446).
T1 sequence: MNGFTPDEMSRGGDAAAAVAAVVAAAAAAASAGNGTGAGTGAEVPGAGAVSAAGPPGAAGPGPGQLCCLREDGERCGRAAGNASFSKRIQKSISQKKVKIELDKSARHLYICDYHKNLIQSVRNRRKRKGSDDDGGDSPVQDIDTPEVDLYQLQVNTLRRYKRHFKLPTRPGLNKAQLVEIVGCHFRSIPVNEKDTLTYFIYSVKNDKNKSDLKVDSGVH
The experiment in a line: co-IP; HEK293T cells transfected with Flag-Tas, Flag-HDAC1 and SAP30 truncations, 48 h; IP with HA antibodies (3HA-SAP30 forms as bait); blot with Flag and HA antibodies.

For the next assay, the target named is Flag-HDAC1 (UniProt Q13547). The experiment in a line: co-IP; HEK293T cells transfected with Myc-Tas and Flag-HDAC1, 3HA-SAP30 or empty vector, 48 h; IP with Flag antibodies (Flag-HDAC1 as bait); blot with Myc, Flag and HA antibodies.
Assay [2] addresses T2, Flag-Tas (prototype foamy virus Tas protein) (prototype foamy virus) (UniProt P14353).
T2 sequence: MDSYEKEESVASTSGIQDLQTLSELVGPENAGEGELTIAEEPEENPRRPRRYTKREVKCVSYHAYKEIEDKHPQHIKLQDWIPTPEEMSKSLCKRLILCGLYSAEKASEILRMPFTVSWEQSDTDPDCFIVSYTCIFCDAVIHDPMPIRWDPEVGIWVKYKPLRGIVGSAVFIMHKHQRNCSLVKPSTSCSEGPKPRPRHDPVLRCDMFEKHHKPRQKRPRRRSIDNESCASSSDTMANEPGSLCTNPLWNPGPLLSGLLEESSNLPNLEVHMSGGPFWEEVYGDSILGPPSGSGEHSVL
The experiment in a line: co-IP; HEK293T cells transfected with Flag-Tas (with or without 3HA-SAP30), 48 h; IP with Flag antibodies and Protein A beads in IP lysis buffer (50 mM Tris HCl pH 8.0, 150 mM NaCl, 1% NP40), 4 °C; blot with HA, SAP30 and Flag antibodies.

For the molecule “Flag-HDAC1 (from UniProt Q13547 1-482) (enzyme)”, the binding result in assay [1] is listed as “binds”.

B1: 3HA-SAP30 (human Sin3A associated protein 30) (protein, UniProt O75446 1-220)
chain: MNGFTPDEMSRGGDAAAAVAAVVAAAAAAASAGNGTGAGTGAEVPGAGAVSAAGPPGAAGPGPGQLCCLREDGERCGRAAGNASFSKRIQKSISQKKVKIELDKSARHLYICDYHKNLIQSVRNRRKRKGSDDDGGDSPVQDIDTPEVDLYQLQVNTLRRYKRHFKLPTRPGLNKAQLVEIVGCHFRSIPVNEKDTLTYFIYSVKNDKNKSDLKVDSGVH
With B1, the binding entry (with Flag-HDAC1; in assay [2]) was “binds” in each case.

B2: endogenous SAP30 (protein, UniProt O75446 1-220)
chain: MNGFTPDEMSRGGDAAAAVAAVVAAAAAAASAGNGTGAGTGAEVPGAGAVSAAGPPGAAGPGPGQLCCLREDGERCGRAAGNASFSKRIQKSISQKKVKIELDKSARHLYICDYHKNLIQSVRNRRKRKGSDDDGGDSPVQDIDTPEVDLYQLQVNTLRRYKRHFKLPTRPGLNKAQLVEIVGCHFRSIPVNEKDTLTYFIYSVKNDKNKSDLKVDSGVH
On to B2, for which the binding entry in assay [2] is on record as “binds”.

B3: Myc-Tas (prototype foamy virus Tas protein) (protein, UniProt P14353 1-300)
chain: MDSYEKEESVASTSGIQDLQTLSELVGPENAGEGELTIAEEPEENPRRPRRYTKREVKCVSYHAYKEIEDKHPQHIKLQDWIPTPEEMSKSLCKRLILCGLYSAEKASEILRMPFTVSWEQSDTDPDCFIVSYTCIFCDAVIHDPMPIRWDPEVGIWVKYKPLRGIVGSAVFIMHKHQRNCSLVKPSTSCSEGPKPRPRHDPVLRCDMFEKHHKPRQKRPRRRSIDNESCASSSDTMANEPGSLCTNPLWNPGPLLSGLLEESSNLPNLEVHMSGGPFWEEVYGDSILGPPSGSGEHSVL
For B3, the binding entry with Flag-HDAC1 was “binds”.

B4: Flag-Tas (prototype foamy virus Tas protein) (protein, UniProt P14353 1-300)
chain: MDSYEKEESVASTSGIQDLQTLSELVGPENAGEGELTIAEEPEENPRRPRRYTKREVKCVSYHAYKEIEDKHPQHIKLQDWIPTPEEMSKSLCKRLILCGLYSAEKASEILRMPFTVSWEQSDTDPDCFIVSYTCIFCDAVIHDPMPIRWDPEVGIWVKYKPLRGIVGSAVFIMHKHQRNCSLVKPSTSCSEGPKPRPRHDPVLRCDMFEKHHKPRQKRPRRRSIDNESCASSSDTMANEPGSLCTNPLWNPGPLLSGLLEESSNLPNLEVHMSGGPFWEEVYGDSILGPPSGSGEHSVL
Regarding B4, the binding entry in assay [1] was “binds”.
